# According to PubChem BioAssay AID743266 (National Center for Advancing Translational Sciences (NCATS), 2014):
# By UniProt entry, the sequences of proteins in these tests, tags left out.
# UniProt Q03431, whole entry, looked up: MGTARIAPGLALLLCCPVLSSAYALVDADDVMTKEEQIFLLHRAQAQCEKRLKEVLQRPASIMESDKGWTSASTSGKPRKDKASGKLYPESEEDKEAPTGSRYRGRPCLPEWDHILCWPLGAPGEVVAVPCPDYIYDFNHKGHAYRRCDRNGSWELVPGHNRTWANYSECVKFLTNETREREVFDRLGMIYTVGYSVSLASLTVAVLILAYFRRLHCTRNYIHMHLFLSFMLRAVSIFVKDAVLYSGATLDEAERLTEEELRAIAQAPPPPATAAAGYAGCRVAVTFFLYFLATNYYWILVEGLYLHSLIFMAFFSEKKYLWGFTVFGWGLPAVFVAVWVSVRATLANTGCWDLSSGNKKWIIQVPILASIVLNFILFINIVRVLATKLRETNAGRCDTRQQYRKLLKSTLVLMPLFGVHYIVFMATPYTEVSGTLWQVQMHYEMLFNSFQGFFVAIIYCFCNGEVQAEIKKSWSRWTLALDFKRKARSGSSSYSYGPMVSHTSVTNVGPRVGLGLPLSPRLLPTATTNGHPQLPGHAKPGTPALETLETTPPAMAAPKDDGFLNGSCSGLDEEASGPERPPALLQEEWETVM
# Out of some 410,000 compounds screened, about 310 (0.076%) were called active. Inconclusive means that the source gave no clear call. Such entries were picked first, then a sample of the others. Calls come from the whole dose curve; as a rule, active = well fitted activation curve with a large enough effect; inconclusive = small, poorly fitted or top-dose-only effect, or another doubt; inactive = no such curve, though single readings can be large or run the other way. Where the call is inconclusive, the potency comes from a doubtful curve fit.
# Target: Parathyroid hormone/parathyroid hormone-related peptide receptor (Homo sapiens) (UniProt Q03431)
# Assay: qHTS for PTHR1 Agonists: Primary Screen; note: nearly all actives have a fitted effect of over 55% in size
# Conditions: HEK293 GP2 PTHR1 cells, GloSensor cAMP luminescence, 1 h; activation: at 115 µM (top of the series) unless noted; series mostly up to 115 µM
# In short: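 HEK-293-derived GP2 cells expressing PTHR1 and a GloSensor cAMP reporter, 3,000/well, plated overnight, given luciferin plus IBMX (each 0.5 mM as added) for 1 h at 37 °C, then compound for 1 h at 37 °C. Luminescence was read after 15 min at room temperature.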
# Potency is the fitted concentration of half-maximal effect.
SMILES,Potency,outcome,activation
Cc1[nH]c(=O)n(C(C)C)c(=O)c1Br,"inconclusive: 126 µM [activator, single point]",–,–
CCC(C)N=Cc1c(NCc2ccco2)nc2c(C)cccn2c1=O (configuration not stated),–,inactive,–
NNC(=O)c1cccn(Cc2ccc(Cl)cc2Cl)c1=O,–,–,inconclusive: -82.7% [activator]
O=C(NCCCn1ccnc1)c1ccncc1,"inconclusive: 56.2 µM [activator, single point]",–,–
O=C(Nc1nnc(CCN2CCOCC2)s1)C1CCCCC1,"inconclusive: 56.2 µM [activator, single point]",–,–
COCCn1nnnc1C(C(C)C)N1CCOCC1 (configuration not stated),"inconclusive: 39.8 µM [activator, single point]",–,–
O=C1NC[C@@H](CCCCN2C[C@H](Cc3ccc(O)cc3)N(CCC3CCCCC3)C(=O)C2=O)N(Cc2ccccc2)C1=O,–,–,inactive: 19.6%
COc1ccc(CCNC(=O)CCn2c(=O)c3ccccc3n(CC(=O)Nc3ccccc3F)c2=O)cc1OC,"inconclusive: 112 µM [activator, single point]",–,–
CN1CCN(S(=O)(=O)c2cccc(C(=O)Nc3nccs3)c2)CC1,–,–,inconclusive: -71.9% [activator]
O=C(Nc1ccccc1Cl)c1ccc2ccccc2c1,"inconclusive: 141 µM [activator, single point]",–,–
COc1cc(/C=C(\NC(C)=O)C(=O)Nc2cccc(O)c2)ccc1OC(C)=O,–,–,inactive: -18.3%
Cc1ccc(CSCc2nc3ccccc3[nH]2)cc1,–,–,inconclusive: -53.8% [activator]
Cc1nn2c(=O)cc(CSCC(=O)Nc3ccccc3Cl)nc2s1,"inconclusive: 56.2 µM [activator, partial curve, poor fit]",–,–
CCN(Cc1ccccc1)C(=O)C1CCN(c2ncnc3c2nc2n3CCCCC2)CC1,inactive,–,–
COc1cccc(C(=O)NC2CC3CCCC(C2)N3CC(=O)Nc2ccccc2)c1 (configuration not stated),–,–,inactive: -7.74% [at 57.5 µM]
O=C(NCc1ccc(Cl)cc1)c1ccc(CSCc2cccc(Cl)c2)o1,–,inactive,–
CCC12CC3CC(C1)CC(C(=O)O)(C3)C2,"inconclusive: 1.26 µM [activator, full curve, poor fit]",–,–
O=C(Cn1cnc2ccccc21)NC(c1ccccc1)c1ccccc1,"inconclusive: 39.8 µM [activator, single point]",–,–
COc1ccc2c(-c3ccc(OCCN4CCCCC4)cc3)c(-c3ccccc3OC)sc2c1,–,–,inconclusive: 35.2% [activator]
Cc1cccc(C(C)C)c1NC(=O)c1ccc(CN(c2ccccc2)S(=O)(=O)c2ccccc2)cc1,–,–,inactive: -4.54%
Cc1cccc2[nH]c(SCC(=O)N3CCOCC3)nc12,"inconclusive: 14.1 µM [activator, partial curve]",–,–
CSc1nc(NCCN(C)C)c2sc3nc(-c4ccco4)c4c(c3c2n1)CCC4,–,–,inactive: -21.8%
O=C(Nc1ccc(N2CCOCC2)cc1)Nc1cnsn1,"inconclusive: 39.8 µM [activator, single point]",–,–
COc1ccc(N2CCN(C(=O)c3c(C)oc4ncnc(N5CCCCC5)c34)CC2)cc1,–,–,inconclusive: 6.5% [activator]

SMILES,Potency,outcome,activation
Cc1cccc(N2CCN(C(=O)C3CCCN(S(=O)(=O)c4cccc5nsnc45)C3)CC2)c1C (configuration not stated),–,–,inactive: -14.1%
O=C1CC(c2ccccc2)Cc2[nH]c(=O)c(C(=O)Nc3ccc(OC(F)(F)F)cc3)cc21 (configuration not stated),"inconclusive: 126 µM [activator, single point]",–,–
O=[N+]([O-])c1ccc(-n2cnc3ccccc32)c([N+](=O)[O-])c1,–,–,inactive: -7.1%
Cc1ccc(NS(=O)(=O)c2ccc(C)c(NC(=O)c3ccc(S(=O)(=O)N4CCCCCC4)cc3)c2)c(C)c1,–,–,inactive: -5.56%
CCCn1c(=O)c2sccc2n2c(CCCC(=O)N3CCN(c4ccccc4)CC3)nnc12,–,–,inactive: -10.8%
CCSc1nnc(NC(=O)CSc2nc3c(c(=O)n2-c2ccccc2)SCC3)s1,"inconclusive: 44.7 µM [activator, single point]",–,–
O=C(Nc1cccc(C(F)(F)F)c1)Oc1ccc(Cl)c2cccnc12,–,inactive,–
O=c1[nH]c(SCc2ccccc2Cl)nc2c1CCC2,–,–,inactive: -18.9%
CC(=O)NC(CC(=O)NCCCn1ccc2ccccc21)c1ccccc1 (configuration not stated),"inconclusive: 25.1 µM [activator, single point]",–,–
O=C(c1cccs1)N1CCN(Cc2cccnc2)CC1,"inconclusive: 56.2 µM [activator, single point]",–,–
c1ccc(Oc2cccc(CN3CCOCC3)c2)cc1,"inconclusive: 14.1 µM [activator, partial curve, poor fit]",–,–
O=C1C2C3C=CC(C4CC34)C2C(=O)N1Cc1ccco1 (configuration not stated),–,–,inconclusive: 39.1% [activator]
CCOC(=O)COc1ccc(S(=O)(=O)N2CCc3ccccc3C2)cc1,–,–,inconclusive: 43.6% [activator] [at 57.5 µM]
CN1OC[C@@H]2CN(C(=S)Nc3ccc(C#N)cc3)[C@H](c3ccc(N4CCCCC4)cc3)C[C@@H]21,–,–,inactive: -18.7%
CCCN1C(=O)C(NC(=O)c2ccccc2OC)(C(F)(F)F)C(C(=O)OC)=C1C (configuration not stated),–,inactive,–
COC(=O)CCC(=O)Nc1ccccc1C(N)=O,–,–,inconclusive: 16.1% [activator] [at 57.5 µM]
Cn1c(Cc2ccccc2)nnc1SCc1nc2ccccc2c(=O)[nH]1,–,–,inconclusive: 44.7% [activator]
CC(C)C[C@@H](CNCC(=O)[C@H](CC(=O)O)NC(=O)c1[nH]cnc1C(=O)N[C@H](CN)CC(C)C)NC(=O)c1nc[nH]c1C(=O)N[C@@H](C)C(=O)O,–,–,inactive: -8.39%
O=C(NC1CCN(Cc2ccccc2)CC1)c1cccc(S(=O)(=O)Nc2ccc(F)cc2)c1,–,–,inactive: -21%
COc1ccc(-n2cc(-c3ccccc3)c3c(NC4CCCCC4)ncnc32)cc1,–,–,inconclusive: 77.3% [activator]
O=C(NCc1nc2ccccc2[nH]1)c1ccc(S(=O)(=O)N2CCOCC2)cc1,"inconclusive: 39.8 µM [activator, single point]",–,–
CCOC(=O)C1(CC2CCCCO2)CCN(Cc2nccn2-c2ccc(OC)cc2)CC1 (configuration not stated),–,inactive,–
COc1ccc(C(=O)NCCc2cnc[nH]2)cc1OC,"inconclusive: 126 µM [activator, partial curve, poor fit]",–,–
COc1ccc(/C=N/c2c(-c3ccco3)nc3ccccn23)cc1OC,"inconclusive: 3.16 µM [activator, full curve]",–,–

SMILES,Potency,outcome,activation
Cc1cc(N2C(=O)C=CC2=O)c([N+](=O)[O-])cc1C,–,–,inconclusive: -94.8% [activator]
COc1ccc(C(=O)NCCS(=O)(=O)NCCc2ccccc2)cc1,–,–,inactive: -15.2%
Cc1ccc(C)c(NC(=O)CN(C)C(=O)c2ccccc2OCc2c(C)noc2C)c1,"inconclusive: 50.1 µM [activator, partial curve, poor fit]",–,–
Cc1ccc(Cl)cc1Nc1nc2ccccc2c2nncn12,–,–,inconclusive: 48.8% [activator]
Cn1c(C(=O)Nc2ccc(Cl)cc2)cc2cc(Cl)ccc21,"inconclusive: 100 µM [activator, single point]",–,–
Cc1nc(C)c(-c2ccc(SCC(=O)Nc3ccc(Cl)c(Cl)c3)nn2)s1,–,–,inactive: -31.7%
CCOC(=O)C1CC(CN2C(=O)c3ccccc3C2=O)OC1=O (configuration not stated),–,–,inconclusive: 30.1% [activator]
COc1cccc(CNC(=O)C2CCN(C(=O)N3CCOc4ccc(Cl)cc43)CC2)c1OC,"inconclusive: 11.2 µM [activator, partial curve, poor fit]",–,–
O=C(N/N=C\c1ccncc1)c1ccc(Cl)s1,–,–,inconclusive: 45.5% [activator]
CCN1C(=O)CC(Sc2ccccc2C(=O)O)C1=O (configuration not stated),"inconclusive: 1.58 µM [activator, partial curve]",–,–
CC(=O)N1CCC2(CC1)OC(=O)C(C)=C2C(=O)Nc1cccc(Cl)c1C,–,inactive,–
Cc1ccc(-n2c(=O)c3c(c4cc(C)ccc4n3C)n(CC(=O)Nc3c(C)cccc3C)c2=O)cc1,"inconclusive: 15.8 µM [activator, partial curve]",–,–
Cn1c(C(=O)NCc2cccs2)cc2oc3ccccc3c21,–,–,inactive: -38.1% [at 57.5 µM]
Cn1cc(CCCC(=O)NCc2ccccc2)c2ccccc21,–,inactive,–
CC(=O)NC(Cc1c[nH]c2ccccc12)C(=O)NCc1ccco1 (configuration not stated),"inconclusive: 7.08 µM [activator, full curve, poor fit]",–,–
CSc1nnc(C(C)c2ncc(C(F)(F)F)cc2Cl)n1C (configuration not stated),"inconclusive: 44.7 µM [activator, partial curve, poor fit]",–,–
O=C(NNS(=O)(=O)c1ccc(F)cc1)c1ccccc1,–,–,inconclusive: 41.3% [activator]
O=C1NC[C@@H](CCCCN2C[C@H](Cc3ccccc3)N(CCC3CCCCC3)C(=O)C2=O)N(CCc2ccc(O)cc2)C1=O,"inconclusive: 126 µM [activator, single point]",–,–
COc1ccc(CNC(=O)CSc2ncc3c(n2)-c2ccc(Cl)cc2N(Cc2ccc(F)cc2)S3(=O)=O)cc1OC,–,–,inconclusive: 31.5% [activator]
CCOC(=O)C(=O)N(Nc1ccc(C)cc1)c1ccc(C)cc1,–,–,inactive: -14.9%
Cc1ccccc1C(=O)NC(CC(C)C)C(=O)Nc1ccc(S(N)(=O)=O)cc1 (configuration not stated),"inconclusive: 158 µM [activator, single point]",–,–
NS(=O)(=O)c1ccc(NC(=O)Nc2ccc(S(N)(=O)=O)cc2)cc1,"inconclusive: 141 µM [activator, single point]",–,–
COC(=O)CSc1nnc(-c2cccnc2)n1C,"inconclusive: 44.7 µM [activator, partial curve, poor fit]",–,–
Oc1c(Cl)cc(Oc2cc(Cl)c(O)c(CN3CCOCC3)c2)cc1CN1CCOCC1,–,–,inactive: -9.17%

# Part of the list above in order of SMILES length, falling:
SMILES,Potency,outcome,activation
Cc1ccc(NS(=O)(=O)c2ccc(C)c(NC(=O)c3ccc(S(=O)(=O)N4CCCCCC4)cc3)c2)c(C)c1,–,–,inactive: -5.56%
Cc1ccc(Cl)cc1Nc1nc2ccccc2c2nncn12,–,–,inconclusive: 48.8% [activator]
COC(=O)CCC(=O)Nc1ccccc1C(N)=O,–,–,inconclusive: 16.1% [activator] [at 57.5 µM]
